The list shows a part of the results. Residues, ends and D or L forms follow the SMILES beside them. *: point of attachment. Cbz = O=C(OCc1ccccc1)*
Columns and labels:
Assay in all cases: log2 fold change, soluble protein after heating vs DMSO (PISA); higher = thermal stabilisation; K562 cells, 10 uM, 30 min; active = over 0.2 and 3.5 SD of the protein, either way, in both replicates (recomputed)
[1] = compound: C1COCCN1CCN2C3=CC=CC=C3N=C2NC(=O)C4=CC(=CC=C4)[N+](=O)[O-] [IRAK-1-4 Inhibitor I]
Procedure, shortened: (§1)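 Aliquots of K562 cells (2×10^6 cells/mL) treated with 10 μM compound for 30 min were heated for 3 min over 48°C-58°C. After pooling and extraction in PBS with 0.5% NP-40 at 4°C, soluble protein from a 21,000xg, 90 min spin was quantified by TMTpro 16plex LC-MS/MS with channel sums equalised. Thermal stability is expressed against control samples, from duplicates, as a log2 fold change.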

Amino acid sequences for entries named in this document (tags omitted). A change or cut given only in a name is not applied to a line headed by its entry.
UniProt Q86WX3: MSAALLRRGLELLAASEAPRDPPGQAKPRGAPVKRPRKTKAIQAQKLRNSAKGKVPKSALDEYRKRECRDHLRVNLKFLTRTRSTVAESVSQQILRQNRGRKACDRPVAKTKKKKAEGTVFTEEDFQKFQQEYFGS
UniProt Q9UBF6, whole entry, looked up: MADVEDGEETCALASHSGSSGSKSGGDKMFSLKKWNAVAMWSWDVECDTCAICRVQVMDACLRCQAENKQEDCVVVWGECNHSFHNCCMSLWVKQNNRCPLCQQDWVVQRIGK
UniProt Q13464: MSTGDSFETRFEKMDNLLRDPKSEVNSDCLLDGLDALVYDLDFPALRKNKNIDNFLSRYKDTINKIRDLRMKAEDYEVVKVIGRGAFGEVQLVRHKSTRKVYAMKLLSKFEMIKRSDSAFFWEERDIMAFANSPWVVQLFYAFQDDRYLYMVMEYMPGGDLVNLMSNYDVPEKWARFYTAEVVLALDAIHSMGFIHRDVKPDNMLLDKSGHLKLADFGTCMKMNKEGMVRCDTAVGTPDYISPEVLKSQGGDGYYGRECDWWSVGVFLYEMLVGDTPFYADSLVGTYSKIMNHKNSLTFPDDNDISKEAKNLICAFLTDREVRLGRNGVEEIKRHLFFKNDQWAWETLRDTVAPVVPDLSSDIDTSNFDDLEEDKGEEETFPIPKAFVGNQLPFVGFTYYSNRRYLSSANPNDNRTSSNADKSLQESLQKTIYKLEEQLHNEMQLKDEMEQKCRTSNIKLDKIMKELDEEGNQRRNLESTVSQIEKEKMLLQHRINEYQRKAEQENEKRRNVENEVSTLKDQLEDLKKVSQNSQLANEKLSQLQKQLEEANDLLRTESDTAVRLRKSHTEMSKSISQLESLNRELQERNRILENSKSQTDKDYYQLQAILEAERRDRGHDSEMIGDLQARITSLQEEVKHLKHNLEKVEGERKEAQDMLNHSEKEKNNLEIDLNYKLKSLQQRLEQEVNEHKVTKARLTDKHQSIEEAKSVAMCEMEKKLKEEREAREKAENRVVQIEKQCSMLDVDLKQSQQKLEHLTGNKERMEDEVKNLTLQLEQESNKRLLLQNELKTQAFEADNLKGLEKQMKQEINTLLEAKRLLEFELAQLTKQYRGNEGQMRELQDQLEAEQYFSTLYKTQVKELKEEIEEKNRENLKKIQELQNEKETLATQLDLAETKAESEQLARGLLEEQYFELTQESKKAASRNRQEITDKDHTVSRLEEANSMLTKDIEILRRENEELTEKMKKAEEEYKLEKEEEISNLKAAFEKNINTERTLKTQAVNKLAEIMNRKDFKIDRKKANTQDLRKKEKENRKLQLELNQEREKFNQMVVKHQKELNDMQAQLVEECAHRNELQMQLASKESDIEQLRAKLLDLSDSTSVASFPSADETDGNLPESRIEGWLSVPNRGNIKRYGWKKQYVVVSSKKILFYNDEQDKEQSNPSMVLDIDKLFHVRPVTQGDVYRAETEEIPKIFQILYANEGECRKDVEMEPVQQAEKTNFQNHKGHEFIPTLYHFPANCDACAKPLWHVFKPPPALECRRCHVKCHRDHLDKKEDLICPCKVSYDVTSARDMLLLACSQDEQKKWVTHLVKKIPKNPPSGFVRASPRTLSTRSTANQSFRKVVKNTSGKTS
UniProt Q7L523, whole entry, looked up: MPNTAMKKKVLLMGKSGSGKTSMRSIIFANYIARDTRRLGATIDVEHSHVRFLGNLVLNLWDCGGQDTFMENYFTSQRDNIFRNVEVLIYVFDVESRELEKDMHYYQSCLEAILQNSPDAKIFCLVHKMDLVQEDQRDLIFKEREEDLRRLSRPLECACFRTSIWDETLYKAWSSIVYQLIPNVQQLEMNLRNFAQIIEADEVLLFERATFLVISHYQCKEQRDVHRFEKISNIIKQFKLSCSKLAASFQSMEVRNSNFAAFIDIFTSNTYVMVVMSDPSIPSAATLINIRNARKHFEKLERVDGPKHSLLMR
UniProt Q969K3: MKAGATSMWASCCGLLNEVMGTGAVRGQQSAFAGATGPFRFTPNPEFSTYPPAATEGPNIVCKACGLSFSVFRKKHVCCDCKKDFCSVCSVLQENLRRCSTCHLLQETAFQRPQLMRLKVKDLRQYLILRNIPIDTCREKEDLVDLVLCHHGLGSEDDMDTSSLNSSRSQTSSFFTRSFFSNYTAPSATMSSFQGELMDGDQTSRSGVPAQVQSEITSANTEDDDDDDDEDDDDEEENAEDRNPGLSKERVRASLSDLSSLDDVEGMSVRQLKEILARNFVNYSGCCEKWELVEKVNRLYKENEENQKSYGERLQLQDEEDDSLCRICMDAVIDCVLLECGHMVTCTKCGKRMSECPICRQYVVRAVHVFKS
UniProt P23921: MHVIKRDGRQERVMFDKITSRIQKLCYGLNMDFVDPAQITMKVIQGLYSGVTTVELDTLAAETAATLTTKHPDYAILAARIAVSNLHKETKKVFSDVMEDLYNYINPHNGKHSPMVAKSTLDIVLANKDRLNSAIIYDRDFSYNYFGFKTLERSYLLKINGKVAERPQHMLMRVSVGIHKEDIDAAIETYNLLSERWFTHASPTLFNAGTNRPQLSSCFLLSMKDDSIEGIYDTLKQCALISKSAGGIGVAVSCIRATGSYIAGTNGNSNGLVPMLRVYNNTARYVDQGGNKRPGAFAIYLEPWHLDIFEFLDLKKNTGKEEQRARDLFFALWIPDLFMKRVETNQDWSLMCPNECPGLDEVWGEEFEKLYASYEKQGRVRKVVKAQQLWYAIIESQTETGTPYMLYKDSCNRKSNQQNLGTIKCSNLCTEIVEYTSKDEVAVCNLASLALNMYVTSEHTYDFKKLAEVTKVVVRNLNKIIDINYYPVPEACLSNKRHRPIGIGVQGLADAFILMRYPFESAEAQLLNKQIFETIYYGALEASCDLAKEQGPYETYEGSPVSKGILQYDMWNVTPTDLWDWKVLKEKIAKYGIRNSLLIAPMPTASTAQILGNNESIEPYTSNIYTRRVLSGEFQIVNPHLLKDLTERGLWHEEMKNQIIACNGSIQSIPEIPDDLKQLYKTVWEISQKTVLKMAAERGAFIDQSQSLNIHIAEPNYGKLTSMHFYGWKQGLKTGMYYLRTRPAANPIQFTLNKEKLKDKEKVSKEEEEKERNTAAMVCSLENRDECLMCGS
UniProt Q8IZ73: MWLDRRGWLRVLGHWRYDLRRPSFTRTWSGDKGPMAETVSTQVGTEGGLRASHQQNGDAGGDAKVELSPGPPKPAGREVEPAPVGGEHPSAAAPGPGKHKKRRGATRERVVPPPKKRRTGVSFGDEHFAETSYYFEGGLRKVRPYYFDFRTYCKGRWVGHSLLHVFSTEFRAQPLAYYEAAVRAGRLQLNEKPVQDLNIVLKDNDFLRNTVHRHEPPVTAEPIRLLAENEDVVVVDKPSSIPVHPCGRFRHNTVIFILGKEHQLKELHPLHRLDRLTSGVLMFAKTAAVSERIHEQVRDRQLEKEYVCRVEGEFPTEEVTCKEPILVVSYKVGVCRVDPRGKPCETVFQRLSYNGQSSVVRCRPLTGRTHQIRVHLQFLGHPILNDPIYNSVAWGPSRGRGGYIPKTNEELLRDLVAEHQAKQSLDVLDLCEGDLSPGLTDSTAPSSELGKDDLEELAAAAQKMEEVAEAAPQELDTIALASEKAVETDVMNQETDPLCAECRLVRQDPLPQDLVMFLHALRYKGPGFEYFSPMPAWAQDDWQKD
UniProt P10155: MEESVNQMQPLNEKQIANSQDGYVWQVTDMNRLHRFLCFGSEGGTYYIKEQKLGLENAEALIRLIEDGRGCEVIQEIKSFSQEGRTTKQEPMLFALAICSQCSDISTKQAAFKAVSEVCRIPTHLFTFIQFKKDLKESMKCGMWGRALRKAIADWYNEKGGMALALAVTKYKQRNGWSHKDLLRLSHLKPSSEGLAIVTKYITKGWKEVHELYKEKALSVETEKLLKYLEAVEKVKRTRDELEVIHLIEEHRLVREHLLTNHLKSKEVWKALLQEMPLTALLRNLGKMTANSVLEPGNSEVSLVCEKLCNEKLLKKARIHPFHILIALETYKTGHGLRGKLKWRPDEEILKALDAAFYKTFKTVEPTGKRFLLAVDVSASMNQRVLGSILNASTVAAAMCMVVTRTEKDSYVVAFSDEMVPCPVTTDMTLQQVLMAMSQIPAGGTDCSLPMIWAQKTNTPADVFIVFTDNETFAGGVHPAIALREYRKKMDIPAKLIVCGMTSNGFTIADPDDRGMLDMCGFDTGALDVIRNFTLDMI
UniProt O75695: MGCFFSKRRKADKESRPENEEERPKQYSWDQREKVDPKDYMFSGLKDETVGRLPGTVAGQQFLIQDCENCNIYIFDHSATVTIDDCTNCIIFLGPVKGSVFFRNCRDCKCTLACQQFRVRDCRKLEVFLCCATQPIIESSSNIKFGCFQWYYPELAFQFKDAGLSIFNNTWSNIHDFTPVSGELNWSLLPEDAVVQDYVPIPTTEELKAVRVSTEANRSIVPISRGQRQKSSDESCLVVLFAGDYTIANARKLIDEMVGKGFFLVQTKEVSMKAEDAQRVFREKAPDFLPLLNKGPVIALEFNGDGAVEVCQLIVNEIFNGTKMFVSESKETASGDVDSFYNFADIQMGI
UniProt P05387, whole entry, looked up: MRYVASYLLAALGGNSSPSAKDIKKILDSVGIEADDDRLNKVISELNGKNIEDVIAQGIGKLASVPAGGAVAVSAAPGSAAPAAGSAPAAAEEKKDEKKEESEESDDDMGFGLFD

[2] = compound: C=CC(=O)N1CCC[C@@H](n2nc(-c3ccc(Oc4ccccc4)cc3)c3c(N)ncnc32)C1 [ibrutinib]
Procedure, shortened: as §1

[3] = compound: CC(=O)c1cnc2ccc(-c3cc(Cl)c(O)c(Cl)c3)nc2c1N[C@H]1CC[C@H](CN(C)C)CC1
Procedure, shortened: as §1

[4] = compound: CC(C)(C)Cn1c(N)nc2ccc(-c3[nH]c(C(C)(C)C)nc3-c3ccc(F)cc3)nc21 [ralimetinib]
Procedure, shortened: as §1

[5] = compound: CC(C)(O)CC(=O)NCCn1ccc2ncnc(Nc3ccc(Oc4cccc(C(F)(F)F)c4)c(Cl)c3)c21
Procedure, shortened: as §1

[6] = compound: CC(C)C1=C2N=C(C=C(N2N=C1)NCC3=CC=CC=C3)NCCCCCCN
Procedure, shortened: as §1

[7] = compound: CC(C)C[C@@H](C=O)NC(=O)[C@H](CC(C)C)NC(=O)[C@H](CC(C)C)NC(=O)OCc1ccccc1
Procedure, shortened: as §1

[8] = compound: CC(C)N(C[C@H]1O[C@@H](n2cnc3c(N)ncnc32)[C@H](O)[C@@H]1O)[C@H]1C[C@@H](CCc2nc3cc(C(C)(C)C)ccc3[nH]2)C1 [pinometostat]
Procedure, shortened: as §1

[9] = compound: CC1=C(C(CC(=O)N1)C2=CC=C(C=C2)C(F)(F)F)C(=O)NC3=C(C=C4C(=C3)C=NN4)F
Procedure, shortened: as §1

[10] = compound: CC1=C(C2=C(C=C1)C(=O)C3=CC=CC=C3N2CCCN)C
Procedure, shortened: as §1

Row | Target | log2 fold change [1] | log2 fold change [2] | log2 fold change [3] | log2 fold change [4] | log2 fold change [5] | log2 fold change [6] | log2 fold change [7] | log2 fold change [8] | log2 fold change [9] | log2 fold change [10]
1 | RPL28 (UniProt P46779) | inactive: -0.201 | inactive: 0.098 | inactive: 0.303 | inactive: 0.26 | inactive: 0.009 | inactive: -0.002 | inactive: 0.145 | inactive: 0.505 | inactive: 0.041 | inactive: -0.75
2 | RPS17 (UniProt P08708) | inactive: -0.095 | inactive: 0.057 | inactive: 0.035 | inactive: 0.1 | inactive: 0.084 | inactive: -0.013 | inactive: 0.08 | inactive: 0.077 | inactive: 0.006 | inactive: -0.41
3 | RPS19BP1 (UniProt Q86WX3) | inactive: -0.095 | inactive: 0.006 | inactive: 0.093 | inactive: 0.02 | inactive: 0.219 | inactive: -0.17 | inactive: 0.172 | inactive: 0.118 | inactive: -0.083 | inactive: -0.333
4 | RNF7 (UniProt Q9UBF6) | inactive: 0.092 | inactive: 0.039 | inactive: 0.018 | inactive: -0.007 | inactive: -0.031 | inactive: 0.239 | inactive: -0.028 | inactive: -0.077 | inactive: 0.118 | inactive: 0.053
5 | RPL34 (UniProt P49207) | inactive: -0.35 | inactive: 0.059 | inactive: 0.233 | inactive: 0.263 | inactive: 0.052 | inactive: 0.041 | inactive: 0.178 | inactive: 0.508 | inactive: 0.094 | inactive: -1.12
6 | RPL36AL (UniProt Q969Q0) | inactive: -0.477 | inactive: 0.038 | inactive: 0.24 | inactive: 0.497 | inactive: 0.037 | inactive: 0.062 | inactive: -0.001 | inactive: 0 | inactive: 0.095 | inactive: -0.684
7 | RPL8 (UniProt P62917) | inactive: -0.236 | inactive: 0.033 | inactive: 0.215 | inactive: 0.303 | inactive: 0.122 | inactive: -0.019 | inactive: 0.272 | inactive: 0.576 | inactive: 0.078 | inactive: -0.942
8 | ROCK1 (UniProt Q13464) | inactive: -0.019 | inactive: 0.013 | inactive: 0.015 | inactive: 0.031 | inactive: -0.079 | inactive: -0.026 | inactive: 0.012 | inactive: 0.027 | active: 0.249 | inactive: -0.013
9 | RPL18 (UniProt Q07020) | inactive: -0.192 | inactive: 0.056 | inactive: 0.266 | inactive: 0.289 | inactive: 0.037 | inactive: 0.033 | inactive: 0.172 | inactive: 0.576 | inactive: 0.107 | inactive: -0.966
10 | RPL26 (UniProt P61254) | inactive: -0.23 | inactive: 0.074 | inactive: 0.284 | inactive: 0.335 | inactive: 0.006 | inactive: 0.027 | inactive: 1.12 | inactive: 0.661 | inactive: 0.075 | inactive: -0.717
11 | RRAGA (UniProt Q7L523) | inactive: 0.045 | inactive: 0.064 | inactive: 0.13 | inactive: 0.207 | inactive: 0.014 | inactive: -0.014 | inactive: -0.009 | inactive: -0.057 | inactive: 0.062 | inactive: -0.069
12 | RPL15 (UniProt P61313) | inactive: -0.244 | inactive: 0.118 | inactive: 0.253 | inactive: 0.321 | inactive: 0.093 | inactive: 0.028 | inactive: 0.217 | inactive: 0.603 | inactive: 0.116 | inactive: -1.16
13 | RPL32 (UniProt P62910) | inactive: -0.294 | inactive: 0.105 | inactive: 0.219 | inactive: 0.201 | inactive: 0 | inactive: -0.011 | inactive: 0.165 | inactive: 0.41 | inactive: 0.129 | inactive: -0.728
14 | RNF34 isoform 2 (UniProt Q969K3) | inactive: 0.027 | inactive: -0.052 | inactive: -0.22 | inactive: -0.122 | inactive: -0.202 | inactive: -0.037 | inactive: 0.254 | inactive: -0.014 | inactive: -0.072 | inactive: -0.008
15 | RPL11 (UniProt P62913) | inactive: -0.234 | inactive: 0.047 | inactive: 0.137 | inactive: 0.196 | inactive: 0 | inactive: -0.045 | inactive: 0.233 | inactive: 0.507 | inactive: 0.099 | inactive: -0.364
16 | RRM1 (UniProt P23921) | inactive: 0.029 | inactive: 0.003 | inactive: 0.004 | inactive: -0.039 | inactive: -0.121 | inactive: 0.014 | inactive: -0.002 | inactive: -0.038 | inactive: 0.007 | inactive: 0.071
17 | RPUSD2 (UniProt Q8IZ73) | inactive: 0.036 | inactive: 0.017 | inactive: 0.019 | inactive: -0.041 | inactive: 0.003 | inactive: 0.028 | inactive: 0.053 | inactive: 0.013 | inactive: 0.016 | inactive: -0.008
18 | RO60 (UniProt P10155) | inactive: -0.006 | inactive: 0.062 | inactive: 0.004 | inactive: -0.047 | inactive: -0.024 | inactive: 0.049 | inactive: -0.021 | inactive: -0.047 | inactive: 0.045 | inactive: -0.073
19 | RP2 (UniProt O75695) | inactive: 0.034 | inactive: -0.006 | inactive: 0.074 | inactive: -0.041 | inactive: -0.033 | inactive: -0.032 | inactive: 0.062 | inactive: 0.009 | inactive: -0.039 | inactive: -0.002
20 | RPS11 (UniProt P62280) | inactive: -0.138 | inactive: 0.045 | inactive: 0.142 | inactive: 0.153 | inactive: 0 | inactive: -0.003 | inactive: 0.069 | inactive: 0.425 | inactive: 0.053 | inactive: -0.639
21 | RPS27L (UniProt Q71UM5) | inactive: -0.051 | inactive: 0.026 | inactive: 0.039 | inactive: 0.11 | inactive: -0.026 | inactive: -0.087 | inactive: 0.094 | inactive: 0.098 | inactive: -0.026 | inactive: -0.122
22 | RPL13A (UniProt P40429) | inactive: -0.258 | inactive: 0.045 | inactive: 0.294 | inactive: 0.281 | inactive: 0.011 | inactive: -0.044 | inactive: 0.036 | inactive: 0.562 | inactive: 0.115 | inactive: -1.06
23 | RPL4 (UniProt P36578) | inactive: -0.264 | inactive: 0.081 | inactive: 0.276 | inactive: 0.319 | inactive: 0.025 | inactive: -0.047 | inactive: 0.155 | inactive: 0.549 | inactive: 0.086 | inactive: -1.09
24 | RPL35 (UniProt P42766) | inactive: -0.171 | inactive: 0.07 | inactive: 0.108 | inactive: 0.275 | inactive: 0.112 | inactive: -0.032 | inactive: 0.194 | inactive: 0.384 | inactive: 0.063 | inactive: -0.676
25 | RPL13 (UniProt P26373) | inactive: -0.208 | inactive: 0.065 | inactive: 0.232 | inactive: 0.213 | inactive: 0.102 | inactive: 0.022 | inactive: 0.229 | inactive: 0.529 | inactive: 0.117 | inactive: -0.899
26 | RPSA (UniProt P08865) | inactive: -0.032 | inactive: 0.004 | inactive: -0.018 | inactive: 0.026 | inactive: 0.018 | inactive: -0.017 | inactive: 0.025 | inactive: 0.019 | inactive: -0.006 | inactive: -0.046
27 | RPLP2 (UniProt P05387) | inactive: -0.229 | inactive: 0.029 | inactive: 0.168 | inactive: 0.176 | inactive: 0.068 | inactive: 0.051 | inactive: 0.145 | inactive: 0.382 | inactive: 0.097 | inactive: -0.768
28 | RPL12 (UniProt P30050) | inactive: -0.208 | inactive: 0.049 | inactive: 0.183 | inactive: 0.238 | inactive: 0.065 | inactive: 0.07 | inactive: 0.059 | inactive: 0.617 | inactive: 0.092 | inactive: -0.619
29 | RPL21 (UniProt P46778) | inactive: -0.295 | inactive: 0.111 | inactive: 0.244 | inactive: 0.223 | inactive: 0.16 | inactive: -0.019 | inactive: 0.185 | inactive: 0.614 | inactive: 0.093 | inactive: -0.829
30 | RPS10 (UniProt P46783) | inactive: -0.065 | inactive: 0.043 | inactive: 0.037 | inactive: 0.05 | inactive: 0.036 | inactive: -0.03 | inactive: 0.076 | inactive: 0.097 | inactive: 0.037 | inactive: -0.41

Single records (already shown). Values in the order: log2 fold change [1] | log2 fold change [2] | log2 fold change [3] | log2 fold change [4] | log2 fold change [5] | log2 fold change [6] | log2 fold change [7] | log2 fold change [8] | log2 fold change [9] | log2 fold change [10]
RO60 (UniProt P10155) is listed with inactive: -0.006 | inactive: 0.062 | inactive: 0.004 | inactive: -0.047 | inactive: -0.024 | inactive: 0.049 | inactive: -0.021 | inactive: -0.047 | inactive: 0.045 | inactive: -0.073
RNF34 isoform 2 (UniProt Q969K3) is listed with inactive: 0.027 | inactive: -0.052 | inactive: -0.22 | inactive: -0.122 | inactive: -0.202 | inactive: -0.037 | inactive: 0.254 | inactive: -0.014 | inactive: -0.072 | inactive: -0.008
